Part of at least one peptide drawing is inferred or uncertain, most often the ends. Some entries repeat one wording, which the source may state once for all of them. Where a SMILES comes first, the peptide text is derived from it.
Tests used:
Format in all cases: in vivo
[1] = test system: Salmonella typhimurium 415; assay: Survival of mice infected with Salmonella typhimurium after MP-3 pre-treatment; conditions: 21 days
[2] = test system: Salmonella thyphi; assay: Resistance to lethal bacterial infection (100 LD50 Salmonella thyphi) in mice; conditions: intraperitoneal or subcutaneous injection 24 h before 100 LD50 S. thyphi; 100% of controls died within 3 days
[3] = test system: serum interferon; assay: Serum interferon increase in mice (titration on EMV-infected L929 cells)

`CC(C)C[C@H](N)C(=O)N[C@H](C(=O)N[C@@H](CS)C(=O)N[C@@H](Cc1ccc(O)cc1)C(=O)N1CCC[C@H]1C(=O)N[C@@H](CCC(N)=O)C(=O)O)C(C)C` [MP-3, LVCYPQ] (H-LVCYPQ-OH; N-terminus and C-terminus assumed) was tested, and the Survival ([1]; 10^2 bacterial cells/mouse (50% death in control)) was “all mice treated with MP-3 stayed alive”, the Survival ([1]; 10^5 and 10^4 bacterial cells/mouse (100% death in controls), MP-3 0.5×10^−4 or 1×10^−6 g/mouse 24 h before) was 70-90% and the “Protection from lethal challenge” value [2] was “saved most of the animals”. For the same compound, the “Serum interferon level, late” value ([3]; 48 h after single injection of 1-10 μg) was 20 units/ml.
`CC[C@H](C)[C@H](NC(=O)[C@H](CCCNC(=N)N)NC(=O)[C@@H]1CCCN1C(=O)[C@H](CCCNC(=N)N)NC(=O)[C@@H](N)Cc1ccccc1)C(=O)N[C@@H](CCSC)C(=O)N[C@H](C(=O)N1CCC[C@H]1C(=O)O)[C@@H](C)O` [MP-4, FRPRIMTP] (H-FRPRIMTP-OH; N-terminus and C-terminus assumed) was tested, and the “Protection from lethal challenge” value [2] was “saved most of the animals”, the “Serum interferon level, early” value ([3]; 4 h after single i.p. injection of 0.1 μg per mouse) was 40 units/ml and the “Serum interferon level, late” value ([3]; 48 h after single i.p. injection of 0.1 μg per mouse) was 80 units/ml.
`CC(C)[C@H](N)C(=O)N[C@H](C(=O)N[C@@H](Cc1ccc(O)cc1)C(=O)N1CCC[C@H]1C(=O)N[C@@H](CC(=O)O)C(=O)O)C(C)C` [MP-5, VVYPD] (H-VVYPD-OH; N-terminus and C-terminus assumed) was tested, and the “Protection from lethal challenge” value [2] was “saved most of the animals” and the “Serum interferon titer, late” value ([3]; 48 h after single injection of 0.01 μg) was 320 units/ml.
In the case of `CC(C)[C@H](N)C(=O)N[C@@H](CC(=O)O)C(=O)N1CCC[C@H]1C(=O)N1CCC[C@H]1C(=O)O` [MP-6, VDPP] (H-VDPP-OH; N-terminus and C-terminus assumed), the “Protection from lethal challenge” value [2] is reported as “saved most of the animals” and the “Serum interferon level, late” value ([3]; 48 h after single injection of 0.1-1 μg) is reported as 40 units/ml.

— patent US6469137B1, “Myelopeptides and their therapeutic use” (Primamedic, Ltd, priority 1997, dated 2002)
